Laboratory results taken from article PMC8983855.
No constants are given. Whether binding was seen depends on the method and setting. In cells and extracts the contact can be indirect. Some binding calls cover weakened binding; strength is not graded here. Tags and fused reporters may be left off the sequences shown.

Amino acid sequences for entries named in this document (tags omitted).
UniProt P41279: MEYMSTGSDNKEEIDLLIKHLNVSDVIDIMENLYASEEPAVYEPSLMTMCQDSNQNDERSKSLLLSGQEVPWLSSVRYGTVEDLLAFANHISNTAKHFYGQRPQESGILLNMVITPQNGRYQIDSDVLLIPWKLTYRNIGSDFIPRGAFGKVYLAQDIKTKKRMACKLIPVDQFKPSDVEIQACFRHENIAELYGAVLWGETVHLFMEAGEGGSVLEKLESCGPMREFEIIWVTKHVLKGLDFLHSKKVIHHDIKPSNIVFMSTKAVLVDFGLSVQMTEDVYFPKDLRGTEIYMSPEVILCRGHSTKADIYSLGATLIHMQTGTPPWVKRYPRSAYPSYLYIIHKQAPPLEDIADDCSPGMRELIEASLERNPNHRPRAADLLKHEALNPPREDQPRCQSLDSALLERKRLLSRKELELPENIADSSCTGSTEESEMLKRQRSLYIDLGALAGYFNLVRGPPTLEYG

Biological target: HA-TPL2 (UniProt P41279)
Test: co-IP; HEK293 cells transfected with HA-TPL2 and Myc-IKKɛ constructs, with or without 20 ng/ml TNF for 1 hour; lysates with Protein A agarose beads and anti-HA (reciprocal: anti-Myc) antibody, 4 °C, 4 hours; washed 3 to 4 times with cell lysis buffer; WB

binding: binds
B1: Myc-IKKɛ^KD (K38A) (enzyme, UniProt Q14164 1-716)
chain: MQSTANYLWHTDDLLGQGATASVYKARNKKSGELVAVAVFNTTSYLRPREVQVREFEVLRKLNHQNIVKLFAVEETGGSRQKVLVMEYCSSGSLLSVLESPENAFGLPEDEFLVVLRCVVAGMNHLRENGIVHRDIKPGNIMRLVGEEGQSIYKLTDFGAARELDDDEKFVSVYGTEEYLHPDMYERAVLRKPQQKAFGVTVDLWSIGVTLYHAATGSLPFIPFGGPRRNKEIMYRITTEKPAGAIAGAQRRENGPLEWSYTLPITCQLSLGLQSQLVPILANILEVEQAKCWGFDQFFAETSDILQRVVVHVFSLSQAVLHHIYIHAHNTIAIFQEAVHKQTSVAPRHQEYLFEGHLCVLEPSVSAQHIAHTTASSPLTLFSTAIPKGLAFRDPALDVPKFVPKVDLQADYNTAKGVLGAGYQALRLARALLDGQELMFRGLHWVMEVLQATCRRTLEVARTSLLYLSSSLGTERFSSVAGTPEIQELKAAAELRSRLRTLAEVLSRCSQNITETQESLSSLNRELVKSRDQVHEDRSIQQIQCCLDKMNFIYKQFKKSRMRPGLGYNEEQIHKLDKVNFSHLAKRLLQVFQEECVQKYQASLVTHGKRMRVVHETRNHLRLVGCSVAACNTEAQGVQESLSKLLEELSHQLLQDRAKGAQASPPPIAPYPSPTRKDLLLHMQELCEGMKLLASDLLDNNRIIERLNRVPAPPDV
